Patent US12287324B2, “Companion diagnostics for NSAIDS and donepezil for treating specific subpopulations of patients suffering from Alzheimer's disease” (University of North Texas Health Science Center at Fort …, priority 2018, dated 2025)

System: Individuals with a diagnosis of probable AD
Experiment: ADCS anti-inflammatory clinical trial, 1-year exposure; MMSE and CDR-SB outcomes by treatment arm and proinflammatory endophenotype
Format: in vivo, human
Excerpt: Data source. Banked plasma samples from the Alzheimer's Disease Cooperative Studies (ADCS) anti-inflammatory clinical trial were used. […] This was a multicenter, randomized, double-blind, placebo-controlled parallel group trial with 1-year exposure to study medications across forty ambulatory treatment centers affiliated with the ADCS. […] Inclusion criteria were as follows: age 50 or older, MMSE score of 13-26 and diagnosis of probable AD. Stable use of cholinesterase inhibitors was allowed.
Statistical Analyses. Biomarker data were transformed using the Box-Cox transformation per previously published protocols, relevant portions incorporated herein by reference. Support vector machine (SVM) analyses were utilized to build the proteomic profiles simultaneously classifying all outcome groups in R per the inventors previously published methods, relevant portions incorporated herein by reference. SVM analyses are capable of simultaneously taking into account large volume data to generate an overall profile (e.g., over and under-expression of select proteins) that most accurately classifies multiple outcomes rather than only binary outcomes. MMSE change scores were utilized as the outcome variables for the study (i.e. MMSE screening−MMSE 12-month follow-up=MMSE change). Participants were classified into four groups based on change in MMSE scores over 12-months: responders (improved MMSE scores of >=1 point over 12 mo), stable (no change in MMSE over 12 months), non-responders (MMSE decline of 1-2 points over 12 mo) or adverse responders (MMSE decline of 3 or more points over 12 mo). To build inflammatory profiles of treatment response, group status (i.e. treatment response) was utilized as the outcome variable in SVM models with pre-randomization inflammatory proteins as the predictor variable. In order to determine if the proinflammatory profile of treatment response was drug-specific, analyses were conducted utilizing the total sample as well as within specific study treatment arms. […]

[1] = within treatment arm, no change in MMSE over 12 months

COc1ccc2cc([C@H](C)C(=O)O)ccc2c1 [Naproxen, naproxen]
treatment comparison of non-selective versus selective NSAIDs (patients in the high end of the proinflammatory endophenotype): superior treatment | participants who remained stable on MMSE (number) [1]: 4 | participants who remained stable on MMSE (percent of arm) [1]: 8%
